Data on 83 compounds can be found in the supplement of paper PMC6289059.

The list shows a part of the results. Repeats are few or missing, and single values can be far off.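 The assay uses human stem cell-derived hepatocyte-like cells whose DGUOK gene was disrupted by CRISPR, modeling liver mtDNA depletion syndrome. ATP signals were scored within each plate, and any drug with a score of at least 3 was called a primary hit.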

The subject of the assay is DGUOK Δ14/Δ5 iPSC-derived hepatocyte-like cells (SV20). Nature of the assay: ATP level (CellTiter-Glo luminescence) Z score relative to plate distribution, under 2-DG glycolysis block; higher = more cellular ATP (rescue of mitochondrial ATP production). The settings on record: 5 µM; treatment time: day 15 to day 20 of differentiation (5 days); 2-deoxy-D-glucose: 20 mM for 24 h before assay.
For `O=C(NC1CCCCC1)NC1CCCCC1`, the ATP level is inactive: -0.988.

Take `COc1ccc2c(c1)OC[C@@H](Cc1ccc(OC)c(OC)c1)[C@H]2O`: the ATP level was inactive: 3.

Take `NCC[C@H](O)C(=O)N[C@@H]1C[C@H](N)[C@@H](O[C@H]2O[C@H](CN)[C@@H](O)[C@H](O)[C@H]2O)[C@H](O)[C@H]1O[C@H]1O[C@H](CO)[C@@H](O)[C@H](N)[C@H]1O`: the ATP level was inactive: -0.858.

Turning to `CC(C)=CCOc1cc2oc(=O)ccc2cc1O`, the ATP level was inactive: -1.81.

For `O=C(O)CSCC(=O)NC1CCSC1=O` (stereo not drawn), the ATP level was inactive: -1.26.

For `COc1cc(/C=C/C(=O)CC(=O)/C=C/c2ccc(O)c(OC)c2)ccc1O`, the ATP level is inactive: 0.0931.

As to `Cc1cc2nc3c(=O)[nH]c(=O)nc-3n(CC(O)C(O)C(O)COP(=O)(O)O)c2cc1C` (stereo not drawn), the ATP level was inactive: 0.0746.

For the compound `CC(=O)OCC[N+](C)(C)C`, the ATP level was inactive: 0.172.

In the case of `OCCN1C[C@H](O)[C@@H](O)[C@H](O)[C@H]1CO`, the ATP level was inactive: 2.93.

In the case of `CC(=O)O[C@H]1C[C@@H](OC(C)=O)C(C)(C)C2CC(=O)[C@]3(C)C(CC[C@@]4(C)[C@H](c5ccoc5)OC(=O)[C@H]5O[C@]543)[C@]21C` (stereo partly drawn), the ATP level was inactive: -1.95.

On to `O=C(O)c1nc2cc(Cl)c(Cl)cc2nc1O`, for which the ATP level is inactive: 1.21.

Regarding `Cn1cnc([N+](=O)[O-])c1Sc1ncnc2[nH]cnc12`, the ATP level is inactive: -3.83.

Consider `CC(C)C(=O)Nc1ccc([N+](=O)[O-])c(C(F)(F)F)c1`, for which the ATP level is inactive: 1.05.

For `CN(C)[C@@H]1C(=O)C(C(N)=O)=C(O)[C@@]2(O)C(=O)C3=C(O)c4c(O)ccc(Cl)c4[C@@H](O)[C@H]3C[C@@H]12`, the ATP level was inactive: -2.98.

On to `O=C(O)CCCC[C@@H]1SC[C@@H]2NC(=O)N[C@@H]21`, for which the ATP level was inactive: -26.4.

Regarding `CN1CCN(c2cc3c(cc2F)c(=O)c(C(=O)O)cn3-c2ccc(F)cc2)CC1`, the ATP level was inactive: -0.822.

With `CC1COc2c(N3CCN(C)CC3)c(F)cc3c(=O)c(C(=O)O)cn1c23` (stereo not drawn), the ATP level is inactive: -0.164.

Regarding `C[C@H](CCC(=O)O)[C@H]1CC[C@H]2[C@@H]3CC[C@@H]4C[C@H](O)CC[C@]4(C)[C@H]3CC[C@]12C`, the ATP level was active: 3.02.

On to `CC(=O)SCC(Cc1ccccc1)C(=O)NCC(=O)OCc1ccccc1` (stereo not drawn), for which the ATP level is inactive: -0.513.

As for `COC(=O)C1=C(C)NC(C)=C(C(=O)OC(C)C)C1c1cccc2nonc12` (stereo not drawn), the ATP level is inactive: 0.736.

Turning to `CC(C)(C)NC(=O)[C@H]1CC[C@H]2[C@@H]3CC[C@H]4NC(=O)C=C[C@]4(C)[C@H]3CC[C@]12C`, the ATP level was inactive: -7.11.

As for `C=CC1=C(C)/C(=C/c2[nH]c(Cc3[nH]c(/C=C4\NC(=O)C(C)=C4C=C)c(C)c3CCC(=O)O)c(CCC(=O)O)c2C)NC1=O`, the ATP level was inactive: 2.86.

On to `Nc1nc(N)c2nc(-c3ccccc3)c(N)nc2n1`, for which the ATP level was inactive: 0.605.

With `C=C1CC[C@H](O)C/C1=C/C=C1\CCC[C@]2(C)[C@@H]([C@H](C)/C=C/[C@H](C)C(C)C)CC[C@@H]12`, the ATP level was inactive: 2.81.

On to `C[C@H](CC(=O)[C@@H]1OC1(C)C)[C@H]1C(=O)C[C@@]2(C)C3=CC[C@H]4C(C)(C)[C@@H](O[C@@H]5OC[C@@H](O)[C@H](O)[C@H]5O)CC[C@@]45C[C@@]35[C@@H](O)C[C@]12C`, for which the ATP level was inactive: 0.427.

Turning to `CCCCOc1ccc(C(=O)CCN2CCCCC2)cc1`, the ATP level was inactive: -2.53.

On to `COc1cccc(O)c1O`, for which the ATP level was inactive: 2.58.

Turning to `C=C1C(=O)O[C@H]2[C@H]1CC/C(C)=C/CC[C@@]1(C)O[C@@H]21`, the ATP level was inactive: -4.78.

For `CN1[C@@H]2CC[C@H]1C[C@@H](OC(=O)C(O)c1ccccc1)C2` (stereo partly drawn), the ATP level is inactive: 1.54.

Regarding `Cn1nnc2c(C(N)=O)ncn2c1=O`, the ATP level is inactive: 1.07.

Regarding `COc1ccc(CCC(=O)c2c(O)cc(O[C@@H]3O[C@H](CO)[C@@H](O)[C@H](O)[C@H]3O[C@@H]3O[C@@H](C)[C@H](O)[C@@H](O)[C@H]3O)cc2O)cc1O`, the ATP level was inactive: 0.381.

As for `CC(C)=CCC[C@@H](C)[C@@H]1CC[C@]2(C)C3=C(CC[C@@]12C)[C@@]1(C)CC[C@H](O)C(C)(C)[C@@H]1CC3`, the ATP level is inactive: -0.0807.

Turning to `OC(CCN1CCCC1)(c1ccccc1)C1CCCCC1` (stereo not drawn), the ATP level is inactive: -4.58.

As for `CC(=O)/C(=C\c1ccccc1)CC(=O)O`, the ATP level was inactive: 1.6.

For `CC(CN(C)C)CN1c2ccccc2CCc2ccccc21` (stereo not drawn), the ATP level was inactive: 1.62.

With `C=C(C)[C@@H]1CC[C@]2(C)CC[C@]3(C)[C@H](CC[C@@H]4[C@@]5(C)CC[C@H](OC(C)=O)C(C)(C)[C@@H]5CC[C@]43C)[C@@H]12`, the ATP level was inactive: 2.04.

Turning to `COC(=O)[C@H]1[C@H]2C[C@H]3c4[nH]c5ccccc5c4CCN3C[C@H]2CC[C@@H]1O`, the ATP level was inactive: -0.19.

On to `CC1=C(/C=C/C(C)=C/C=C/C(C)=C/C=C/C=C(C)/C=C/C=C(C)/C=C/C(=O)[C@]2(C)C[C@@H](O)CC2(C)C)C(C)(C)C[C@H](O)C1`, for which the ATP level is inactive: 0.874.

As for `C[C@H]1[C@H]2CC[C@H]3[C@@H]4CC=C5C[C@@H](N(C)C)CC[C@]5(C)[C@H]4CC[C@]23CN1C`, the ATP level is inactive: 0.218.

For `C[N+](C)(C)C[C@H](O)CC(=O)[O-]`, the ATP level was inactive: 1.87.

With `COc1ccc(-c2cc(=O)c3c(OC)cc(OC)cc3o2)cc1`, the ATP level was inactive: -2.2.

As to `COC(=O)[C@@]1(C)CCC[C@]2(C)c3ccc(O)c(C(C)C)c3CCC12` (stereo partly drawn), the ATP level was inactive: 2.63.

Regarding `O=C(O)CCCCCCCC(O)C(O)CCCCCCO` (stereo not drawn), the ATP level was inactive: 0.183.

`CN(Cc1cc(Br)cc(Br)c1N)C1CCCCC1`: the ATP level was active: 5.76.

Regarding `C[C@H](CS)C(=O)N1CCC[C@H]1C(=O)O`, the ATP level was inactive: 0.999.

Regarding `CC1(C)O[C@@H]2C[C@H]3[C@@H]4C[C@H](F)C5=CC(=O)C=C[C@]5(C)[C@H]4[C@@H](O)C[C@]3(C)[C@]2(C(=O)CO)O1`, the ATP level was active: 3.92.

As for `C[C@]12CCC(=O)C=C1CC[C@@H]1[C@@H]2[C@@H](O)C[C@@]2(C)[C@H]1CC[C@]2(O)C(=O)COP(=O)(O)O`, the ATP level is inactive: 2.77.

With `CC(=O)OCC(=O)[C@@]1(O)CC[C@H]2[C@@H]3CCC4=CC(=O)C=C[C@]4(C)[C@H]3[C@@H](O)C[C@@]21C`, the ATP level was inactive: 2.5.

As for `O=C(Cc1ccccc1)NO`, the ATP level is inactive: -0.446.

As for `CC[C@H](c1ccc(O)cc1)[C@@H](CC)c1ccc(O)cc1`, the ATP level is inactive: 1.62.

On to `Cc1c(Nc2ncccc2C(=O)O)cccc1C(F)(F)F`, for which the ATP level is inactive: -0.346.

For the compound `NNC(=O)c1ccncc1`, the ATP level is inactive: 0.764.

Regarding `CC1=CCc2c(cc3oc(C)cc(=O)c3c2O)OC1`, the ATP level is inactive: 1.57.

Consider `CCC(=O)OCC(=O)[C@@]1(OC(=O)CC)[C@@H](C)C[C@H]2[C@@H]3CCC4=CC(=O)C=C[C@]4(C)[C@@]3(F)[C@@H](O)C[C@@]21C`, for which the ATP level is active: 5.95.

On to `CC1(C)O[C@@H]2C[C@H]3[C@@H]4C[C@H](F)C5=CC(=O)CC[C@]5(C)[C@H]4[C@@H](O)C[C@]3(C)[C@]2(C(=O)CO)O1`, for which the ATP level was active: 3.09.

Take `CC1(C)CC2C1CCC1(C)OC1CCC2(C)O` (stereo not drawn): the ATP level is inactive: -2.78.

For `CCCCc1oc2ccccc2c1C(=O)c1cc(I)c(OCCN(CC)CC)c(I)c1`, the ATP level was inactive: 1.27.

For the compound `O=c1[nH]c(=O)n([C@H]2C[C@H](O)[C@@H](CO)O2)cc1I`, the ATP level is inactive: 2.15.

Consider `O=c1cccc2ccc(O)c(O)c2c1O`, for which the ATP level was inactive: -4.16.

Regarding `Cc1cccc(N(C)C(=S)Oc2ccc3ccccc3c2)c1`, the ATP level is inactive: 0.219.

`N[C@@H](COP(=O)(O)O)C(=O)O`: the ATP level is active: 3.29.

Consider `CCN1CCCC1CNC(=O)c1cc(S(N)(=O)=O)ccc1OC` (stereo not drawn), for which the ATP level is inactive: 1.37.

`COc1ccc(-c2ccc3cc(C(=O)O)ccc3c2)cc1C12CC3CC(CC(C3)C1)C2`: the ATP level was inactive: -11.4.

As to `O=C(O)c1cc2cc(F)ccc2[nH]1`, the ATP level is inactive: -0.586.

`CC12CC3CC(C)(C1)CC(N)(C3)C2`: the ATP level is inactive: 0.305.

For `CN1C(C(=O)Nc2ccccn2)=C(O)c2sc(Cl)cc2S1(=O)=O`, the ATP level was inactive: 1.47.

With `CC(C)=CCc1c(O)cc2oc(C)cc(=O)c2c1O`, the ATP level was inactive: -0.165.

Turning to `COc1ccc(-c2cc(=O)c3c(OC)c(OC)c(OC)c(OC)c3o2)cc1`, the ATP level was inactive: -0.452.

Take `C#C[C@]1(O)CC[C@H]2[C@@H]3CCC4=Cc5oncc5C[C@]4(C)[C@H]3CC[C@@]21C`: the ATP level is inactive: 0.339.

Turning to `Nc1ccc(S(=O)(=O)O)cc1.Nc1ccc(S(=O)(=O)O)cc1.[Zn]`, the ATP level was active: 9.42.

Turning to `CS(C)(=O)=O`, the ATP level was inactive: -2.47.

Regarding `O=C(Nc1ccc([N+](=O)[O-])cc1Cl)c1cc(Cl)ccc1O`, the ATP level is inactive: -36.8.

For `CCOc1ccc(Cc2nccc3cc(OCC)c(OCC)cc23)cc1OCC`, the ATP level is inactive: -4.

Consider `O=c1cc[nH]c(=O)[nH]1`, for which the ATP level was inactive: 1.26.

As to `COc1ccc(-c2cc(=O)c3c(OC)c(OC)c(OC)c(OC)c3o2)cc1OC`, the ATP level is inactive: -5.39.

For `CCCCC(CC)COc1ccc(-c2nc(-c3ccc(OC)cc3)nc(-c3ccc(OCC(CC)CCCC)cc3O)n2)c(O)c1` (stereo not drawn), the ATP level is inactive: 1.43.

Consider `CC/C=C\C/C=C\C/C=C\C/C=C\C/C=C\C/C=C\CCC(=O)O`, for which the ATP level was inactive: -0.851.

In the case of `C=C1C(N)CC2CC1C2(C)C` (stereo not drawn) [3-AMINO-beta-PINENE], the ATP level was inactive: -1.54.

As to `CCC[C@@H]1C[C@@H](C(=O)N[C@@H]([C@H]2O[C@H](SC)[C@H](O)[C@@H](O)[C@H]2O)[C@@H](C)O)N(C)C1`, the ATP level was inactive: 0.927.

`CN1CCCN=C1/C=C/c1cccs1`: the ATP level is inactive: 0.427.

Consider `CCN(CC)CCNC(=O)c1cc(Br)c(N)cc1OC`, for which the ATP level is inactive: -2.96.

On to `CCCCC(=O)N(Cc1ccc(-c2ccccc2-c2nnn[nH]2)cc1)[C@H](C(=O)O)C(C)C`, for which the ATP level is inactive: -1.03.

For `C[C@H]1C(=O)CC[C@@H]2[C@]1(C)CC[C@H]1[C@@]2(C)CC[C@@]2(C)[C@@H]3CC(C)(C)CC[C@]3(C)CC[C@]12C`, the ATP level is inactive: -0.112.
